Experimental findings from article PMC5760070 are described below.

Amino acid sequences for entries named in this document (tags omitted).
UniProt O33269: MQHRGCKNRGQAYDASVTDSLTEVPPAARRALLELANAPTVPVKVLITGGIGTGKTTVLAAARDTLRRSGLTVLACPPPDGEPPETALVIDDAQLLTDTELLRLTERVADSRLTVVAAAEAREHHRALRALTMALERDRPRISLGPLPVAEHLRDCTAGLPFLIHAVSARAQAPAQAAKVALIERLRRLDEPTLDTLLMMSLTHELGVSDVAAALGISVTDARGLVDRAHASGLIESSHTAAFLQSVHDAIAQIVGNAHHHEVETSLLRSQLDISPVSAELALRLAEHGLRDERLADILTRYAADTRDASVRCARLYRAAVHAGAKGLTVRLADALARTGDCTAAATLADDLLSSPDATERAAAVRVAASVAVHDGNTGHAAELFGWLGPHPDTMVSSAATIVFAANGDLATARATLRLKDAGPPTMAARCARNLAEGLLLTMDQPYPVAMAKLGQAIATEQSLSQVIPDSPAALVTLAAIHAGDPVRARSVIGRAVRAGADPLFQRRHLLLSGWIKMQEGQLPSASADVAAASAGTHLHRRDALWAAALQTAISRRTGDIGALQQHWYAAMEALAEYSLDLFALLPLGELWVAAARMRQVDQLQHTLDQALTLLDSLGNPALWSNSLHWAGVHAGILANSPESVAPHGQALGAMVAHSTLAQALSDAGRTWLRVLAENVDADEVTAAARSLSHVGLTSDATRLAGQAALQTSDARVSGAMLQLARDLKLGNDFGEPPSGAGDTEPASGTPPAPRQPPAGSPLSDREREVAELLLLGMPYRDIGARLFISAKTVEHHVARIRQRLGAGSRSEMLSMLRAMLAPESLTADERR

The experiment deals with Strep-tagged IniRMtb (Rv0339c, iniBAC Regulator of M. tuberculosis) (M. tuberculosis) (UniProt O33269). The experiment in a line: SDS-PAGE and immunoblot of higher-order bands (IniR multimerization assay); both purified. A general note: In western blotting, separated proteins are transferred to a membrane and probed.

Results are given in words; binding and its absence hold for the method and conditions named. Some binding calls cover weakened binding; strength is not graded here.

Regarding “Strep-tagged IniRMtb (Rv0339c, iniBAC Regulator of M. tuberculosis) (from UniProt O33269 1-832)”, the binding result is “binds”.
